Test results: the supplement of paper PMC6078165

Test system: Hs578T
Experiment: relative JC-1 red fluorescence (viability) vs pre-drug, coculture with fibroblast (fraction); higher = more viable cancer cells
Experimental: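 JC-1 labelled TNBC cells cocultured 1:1 (1,500 cells each) with CellTrace Violet stained primary or stromal fibroblasts in 384-well plates in FluoroBrite medium, treated with one of 42 anticancer drugs at 0.1, 1, 10 or 100 uM. JC-1 red fluorescence (mitochondrial integrity in cancer cells only) was read by plate reader every 8 h for 72 h. Values are normalised to each well's pre-drug value. The stock of one drug was tenfold lower, so its dose labels may be too high.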

CO[C@H]1C[C@@H]2CC[C@@H](C)[C@@](O)(O2)C(=O)C(=O)N2CCCC[C@H]2C(=O)O[C@H]([C@H](C)C[C@@H]2CC[C@@H](O)[C@H](OC)C2)CC(=O)[C@H](C)/C=C(\C)[C@@H](O)[C@@H](OC)C(=O)[C@H](C)C[C@H](C)/C=C/C=C/C=C/1C [Rapamycin]
relative JC-1 red fluorescence
Details	8 h	16 h	24 h	32 h	40 h	48 h	56 h	64 h	72 h
10 µM	0.902	0.775	0.663	0.606	0.537	0.521	0.511	0.489	0.495
100 µM	0.91	0.89	0.879	0.791	0.703	0.603	0.562	0.523	0.54

relative JC-1 red fluorescence
Details	8 h	16 h	24 h	32 h	40 h	48 h	56 h	64 h	72 h
10 µM, coculture fibroblast: C12385	0.845	0.818	0.766	0.705	0.6129	0.579	0.549	0.536	0.526
10 µM, coculture fibroblast: H6013	0.896	0.85	0.8119	0.758	0.743	0.767	0.775	0.791	0.774
10 µM, coculture fibroblast: H6019	0.7716	0.643	0.554	0.485	0.495	0.506	0.517	0.537	0.544
10 µM, coculture fibroblast: H6076	0.952	0.829	0.692	0.645	0.569	0.563	0.5533	0.5578	0.5703
10 µM, coculture fibroblast: H6231	0.909	0.892	0.872	0.868	0.814	0.824	0.773	0.779	0.763
10 µM, coculture fibroblast: HADF	0.9698	0.945	0.903	0.893	0.875	0.871	0.854	0.864	0.8632
10 µM, coculture fibroblast: HCFa	0.888	0.818	0.758	0.754	0.758	0.793	0.799	0.806	0.786
10 µM, coculture fibroblast: HCPF	0.919	0.818	0.761	0.736	0.698	0.695	0.714	0.68	0.666
10 µM, coculture fibroblast: HHSteC	0.9753	0.949	0.869	0.793	0.924	0.9135	0.877	0.85	0.811
10 µM, coculture fibroblast: HMF	0.906	0.8184	0.7178	0.674	0.609	0.606	0.593	0.575	0.576
10 µM, coculture fibroblast: HPFa	0.824	0.888	0.862	0.774	0.86	0.875	0.843	0.818	0.773
10 µM, coculture fibroblast: HUF	0.877	0.845	0.894	0.851	0.821	0.803	0.775	0.767	0.75
10 µM, coculture fibroblast: Hs27A	0.964	0.925	0.927	0.921	0.86	0.874	0.895	0.851	0.81
10 µM, coculture fibroblast: Hs343T	0.9968	0.848	0.717	0.653	0.535	0.505	0.453	0.431	0.424
10 µM, coculture fibroblast: WS1	0.825	0.763	0.707	0.614	0.545	0.531	0.497	0.501	0.495
100 µM, coculture fibroblast: C12385	0.891	0.728	0.9186	0.788	0.822	0.652	0.534	0.39	0.356
100 µM, coculture fibroblast: H6013	0.844	0.869	0.821	0.734	0.618	0.544	0.462	0.476	0.485
100 µM, coculture fibroblast: H6019	0.822	0.703	0.667	0.622	0.574	0.487	0.419	0.33	0.27
100 µM, coculture fibroblast: H6076	0.889	0.771	0.827	0.785	0.722	0.708	0.723	0.645	0.644
100 µM, coculture fibroblast: H6231	0.85256	0.831	0.898	0.8	0.875	0.799	0.669	0.625	0.65
100 µM, coculture fibroblast: HADF	0.893	0.922	0.836	0.741	0.656	0.582	0.464	0.483	0.502
100 µM, coculture fibroblast: HCFa	0.874	0.952	0.913	0.792	0.653	0.564	0.472	0.455	0.444
100 µM, coculture fibroblast: HCPF	0.886	0.823	0.772	0.725	0.657	0.609	0.554	0.443	0.3642
100 µM, coculture fibroblast: HHSteC	0.798	0.782	0.693	0.598	0.466	0.415	0.442	0.479	0.476
100 µM, coculture fibroblast: HMF	0.884	0.907	0.893	0.871	0.795	0.737	0.695	0.589	0.564
100 µM, coculture fibroblast: HPFa	0.891	0.894	0.756	0.661	0.666	0.716	0.728	0.742	0.708
100 µM, coculture fibroblast: HUF	0.785	0.778	0.753	0.626	0.567	0.549	0.558	0.579	0.593
100 µM, coculture fibroblast: Hs27A	0.855	0.832	0.755	0.796	0.805	0.7	0.58	0.495	0.502
100 µM, coculture fibroblast: Hs343T	0.878	0.821	0.766	0.699	0.593	0.522	0.467	0.389	0.397
100 µM, coculture fibroblast: WS1	0.794	0.6428	0.5932	0.5323	0.44	0.331	0.247	0.226	0.248

Values are relative to the signal before dosing, not to a vehicle control; the signal also falls without drug.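 Fibroblast labels denote human fibroblasts, mainly primary ones from uterus (C12385, HUF), lung (H6013), bone (Hs27A), adrenal (HADF) and skin (WS1), plus mammary HMF and breast cancer-associated Hs343T. Cancer cells are basal-like or mesenchymal-like triple-negative breast cancer lines. A hit is a response shift exceeding 3x replicate standard deviation. The tissue of the other fibroblasts is not given here.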
